This is one part of the list.
Legend:
Test in all cases: log2 fold change, soluble protein after heating vs DMSO (PISA); higher = thermal stabilisation; K562 cells, 10 uM, 30 min; active = over 0.2 and 3.5 SD of the protein, either way, in both replicates (recomputed)
[1] = compound: COC1=CC=C(C=C1)CN2C=CC3=C2C=C(C=C3)C(=O)NO
How it was run: (§1)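 Thermal stability values are relative to control samples and come from duplicates. They are expressed as log2 fold changes. For measurement, K562 cells (2×10^6 cells/mL) received 10 μM compound for 30 min, and aliquots were heated for 3 min over 48°C-58°C, pooled, and extracted at 4°C in PBS with 0.5% NP-40. Soluble protein, the supernatant after 21,000xg for 90 min, was quantified by TMTpro 16plex LC-MS/MS with equalised channel sums.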

By UniProt entry, the sequences of proteins in these tests, tags left out. Where a name states a change or a piece, a line headed by the entry shows the natural chain unless it says otherwise.
UniProt Q9BWU0: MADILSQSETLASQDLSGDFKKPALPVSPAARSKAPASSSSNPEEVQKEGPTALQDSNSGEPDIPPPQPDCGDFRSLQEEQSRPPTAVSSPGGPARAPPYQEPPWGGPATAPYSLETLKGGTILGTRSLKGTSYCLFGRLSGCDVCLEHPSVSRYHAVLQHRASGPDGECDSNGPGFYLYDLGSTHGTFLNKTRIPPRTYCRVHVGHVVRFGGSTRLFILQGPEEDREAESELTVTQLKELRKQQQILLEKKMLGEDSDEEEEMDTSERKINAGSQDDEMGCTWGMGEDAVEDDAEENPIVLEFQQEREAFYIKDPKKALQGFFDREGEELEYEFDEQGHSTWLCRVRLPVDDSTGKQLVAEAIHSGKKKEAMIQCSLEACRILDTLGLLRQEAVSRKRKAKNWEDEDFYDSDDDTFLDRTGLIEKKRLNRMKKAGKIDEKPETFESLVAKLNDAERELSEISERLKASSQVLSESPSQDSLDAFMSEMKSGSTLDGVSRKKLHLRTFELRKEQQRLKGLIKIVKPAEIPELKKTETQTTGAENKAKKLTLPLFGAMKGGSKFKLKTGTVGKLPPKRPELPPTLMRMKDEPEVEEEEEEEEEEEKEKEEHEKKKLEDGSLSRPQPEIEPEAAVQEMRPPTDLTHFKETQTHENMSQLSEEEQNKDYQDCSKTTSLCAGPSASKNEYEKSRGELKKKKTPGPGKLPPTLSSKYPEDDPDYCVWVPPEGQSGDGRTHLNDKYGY
UniProt Q8NBW4: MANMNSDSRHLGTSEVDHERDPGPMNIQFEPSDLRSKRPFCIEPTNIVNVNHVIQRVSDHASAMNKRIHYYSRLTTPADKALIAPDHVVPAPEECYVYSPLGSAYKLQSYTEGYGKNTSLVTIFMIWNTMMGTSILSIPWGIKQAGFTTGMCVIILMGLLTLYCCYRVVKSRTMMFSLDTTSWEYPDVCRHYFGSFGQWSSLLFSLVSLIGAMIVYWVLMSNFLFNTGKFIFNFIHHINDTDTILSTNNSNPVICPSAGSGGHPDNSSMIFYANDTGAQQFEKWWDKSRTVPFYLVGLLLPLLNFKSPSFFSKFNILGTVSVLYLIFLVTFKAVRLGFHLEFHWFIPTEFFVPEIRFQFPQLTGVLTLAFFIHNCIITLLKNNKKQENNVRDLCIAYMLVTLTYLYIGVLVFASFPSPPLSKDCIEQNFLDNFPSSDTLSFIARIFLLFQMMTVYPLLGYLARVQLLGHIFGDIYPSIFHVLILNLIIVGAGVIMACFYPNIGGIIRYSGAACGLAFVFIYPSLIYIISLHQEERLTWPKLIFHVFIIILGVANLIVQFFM
UniProt Q96GZ6: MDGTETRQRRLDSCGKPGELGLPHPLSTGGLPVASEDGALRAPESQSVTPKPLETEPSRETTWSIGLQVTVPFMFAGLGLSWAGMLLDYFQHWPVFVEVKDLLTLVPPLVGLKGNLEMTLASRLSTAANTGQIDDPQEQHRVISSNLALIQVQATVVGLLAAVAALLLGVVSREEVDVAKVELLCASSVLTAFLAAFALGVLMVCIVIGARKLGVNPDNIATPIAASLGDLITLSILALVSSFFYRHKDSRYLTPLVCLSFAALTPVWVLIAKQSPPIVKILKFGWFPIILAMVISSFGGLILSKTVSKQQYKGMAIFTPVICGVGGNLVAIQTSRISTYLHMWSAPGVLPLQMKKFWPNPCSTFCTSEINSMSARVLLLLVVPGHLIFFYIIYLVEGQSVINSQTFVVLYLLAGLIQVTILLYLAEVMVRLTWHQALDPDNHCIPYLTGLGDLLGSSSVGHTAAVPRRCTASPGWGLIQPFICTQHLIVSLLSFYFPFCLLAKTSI
UniProt O43826: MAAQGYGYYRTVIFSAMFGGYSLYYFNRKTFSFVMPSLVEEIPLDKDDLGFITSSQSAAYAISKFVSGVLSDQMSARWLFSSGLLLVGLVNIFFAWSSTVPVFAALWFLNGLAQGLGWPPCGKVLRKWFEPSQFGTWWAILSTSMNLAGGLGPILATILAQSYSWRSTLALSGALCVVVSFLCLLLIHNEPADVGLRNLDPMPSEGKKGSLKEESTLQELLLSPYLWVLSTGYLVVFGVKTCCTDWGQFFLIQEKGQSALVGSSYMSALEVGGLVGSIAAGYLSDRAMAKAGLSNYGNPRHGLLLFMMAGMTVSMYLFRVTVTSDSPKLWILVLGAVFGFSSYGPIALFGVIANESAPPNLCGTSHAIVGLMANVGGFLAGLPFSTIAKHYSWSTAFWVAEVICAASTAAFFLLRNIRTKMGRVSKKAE
UniProt P05141: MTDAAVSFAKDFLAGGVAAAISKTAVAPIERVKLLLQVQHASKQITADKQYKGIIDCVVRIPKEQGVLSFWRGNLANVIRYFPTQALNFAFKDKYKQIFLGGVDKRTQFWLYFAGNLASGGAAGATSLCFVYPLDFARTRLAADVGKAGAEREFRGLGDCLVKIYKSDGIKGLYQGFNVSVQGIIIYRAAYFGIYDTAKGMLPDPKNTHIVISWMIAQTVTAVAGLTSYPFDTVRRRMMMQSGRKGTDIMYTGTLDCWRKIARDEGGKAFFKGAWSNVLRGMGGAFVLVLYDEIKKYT
UniProt Q9Y2D2: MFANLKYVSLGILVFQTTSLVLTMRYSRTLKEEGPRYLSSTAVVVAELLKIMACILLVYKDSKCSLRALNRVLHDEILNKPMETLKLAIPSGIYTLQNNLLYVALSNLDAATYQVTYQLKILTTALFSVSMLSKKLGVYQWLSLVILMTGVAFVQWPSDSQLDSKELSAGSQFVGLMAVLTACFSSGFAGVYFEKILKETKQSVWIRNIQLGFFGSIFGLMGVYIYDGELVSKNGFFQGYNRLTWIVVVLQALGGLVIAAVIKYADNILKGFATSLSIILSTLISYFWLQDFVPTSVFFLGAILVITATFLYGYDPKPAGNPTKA
UniProt P08195: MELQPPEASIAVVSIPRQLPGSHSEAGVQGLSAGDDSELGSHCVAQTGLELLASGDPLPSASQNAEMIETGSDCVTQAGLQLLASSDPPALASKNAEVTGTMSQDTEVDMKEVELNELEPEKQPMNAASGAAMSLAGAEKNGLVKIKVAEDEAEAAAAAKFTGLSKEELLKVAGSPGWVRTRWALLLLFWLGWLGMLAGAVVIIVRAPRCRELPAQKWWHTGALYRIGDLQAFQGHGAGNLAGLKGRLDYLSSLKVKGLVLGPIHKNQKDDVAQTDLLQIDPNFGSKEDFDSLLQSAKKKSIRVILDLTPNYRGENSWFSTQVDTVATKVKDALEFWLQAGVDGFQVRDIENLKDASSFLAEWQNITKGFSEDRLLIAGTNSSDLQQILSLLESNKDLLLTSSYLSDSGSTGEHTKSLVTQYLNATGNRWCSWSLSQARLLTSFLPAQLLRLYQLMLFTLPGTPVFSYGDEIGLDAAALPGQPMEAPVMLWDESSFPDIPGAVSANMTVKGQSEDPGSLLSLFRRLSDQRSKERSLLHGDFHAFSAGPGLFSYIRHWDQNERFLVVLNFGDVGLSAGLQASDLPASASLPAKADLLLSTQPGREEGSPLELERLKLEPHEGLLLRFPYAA
UniProt Q6NXT4: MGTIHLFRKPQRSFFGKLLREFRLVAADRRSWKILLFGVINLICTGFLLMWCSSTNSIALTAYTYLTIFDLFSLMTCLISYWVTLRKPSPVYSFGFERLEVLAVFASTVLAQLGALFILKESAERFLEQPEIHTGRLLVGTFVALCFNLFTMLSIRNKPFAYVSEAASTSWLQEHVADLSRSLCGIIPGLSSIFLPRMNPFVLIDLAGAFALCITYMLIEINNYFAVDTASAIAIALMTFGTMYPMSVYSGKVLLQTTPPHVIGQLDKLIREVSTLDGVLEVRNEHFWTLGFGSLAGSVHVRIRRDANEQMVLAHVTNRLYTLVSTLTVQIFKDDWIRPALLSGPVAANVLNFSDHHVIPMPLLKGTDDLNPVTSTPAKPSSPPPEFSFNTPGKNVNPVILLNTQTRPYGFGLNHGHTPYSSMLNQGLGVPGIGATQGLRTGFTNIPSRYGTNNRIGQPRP
UniProt Q8TBP6: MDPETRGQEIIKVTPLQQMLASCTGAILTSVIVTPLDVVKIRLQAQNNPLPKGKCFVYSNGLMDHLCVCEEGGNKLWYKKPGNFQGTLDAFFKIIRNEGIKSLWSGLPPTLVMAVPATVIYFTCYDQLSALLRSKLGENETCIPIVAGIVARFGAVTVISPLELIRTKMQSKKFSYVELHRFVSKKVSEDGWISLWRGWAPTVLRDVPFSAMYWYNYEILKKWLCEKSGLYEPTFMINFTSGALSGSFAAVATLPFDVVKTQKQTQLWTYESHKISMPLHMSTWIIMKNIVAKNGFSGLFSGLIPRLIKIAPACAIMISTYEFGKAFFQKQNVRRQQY
UniProt Q9H936: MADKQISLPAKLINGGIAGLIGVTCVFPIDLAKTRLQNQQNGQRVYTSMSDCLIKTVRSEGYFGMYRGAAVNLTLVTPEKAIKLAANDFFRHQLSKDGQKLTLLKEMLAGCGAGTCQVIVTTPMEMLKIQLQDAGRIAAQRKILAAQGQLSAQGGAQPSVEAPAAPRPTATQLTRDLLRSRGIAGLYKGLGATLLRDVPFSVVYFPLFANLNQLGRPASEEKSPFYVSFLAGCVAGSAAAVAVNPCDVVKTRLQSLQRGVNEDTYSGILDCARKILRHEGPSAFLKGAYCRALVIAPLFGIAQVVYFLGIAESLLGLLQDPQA
UniProt Q9UGH3: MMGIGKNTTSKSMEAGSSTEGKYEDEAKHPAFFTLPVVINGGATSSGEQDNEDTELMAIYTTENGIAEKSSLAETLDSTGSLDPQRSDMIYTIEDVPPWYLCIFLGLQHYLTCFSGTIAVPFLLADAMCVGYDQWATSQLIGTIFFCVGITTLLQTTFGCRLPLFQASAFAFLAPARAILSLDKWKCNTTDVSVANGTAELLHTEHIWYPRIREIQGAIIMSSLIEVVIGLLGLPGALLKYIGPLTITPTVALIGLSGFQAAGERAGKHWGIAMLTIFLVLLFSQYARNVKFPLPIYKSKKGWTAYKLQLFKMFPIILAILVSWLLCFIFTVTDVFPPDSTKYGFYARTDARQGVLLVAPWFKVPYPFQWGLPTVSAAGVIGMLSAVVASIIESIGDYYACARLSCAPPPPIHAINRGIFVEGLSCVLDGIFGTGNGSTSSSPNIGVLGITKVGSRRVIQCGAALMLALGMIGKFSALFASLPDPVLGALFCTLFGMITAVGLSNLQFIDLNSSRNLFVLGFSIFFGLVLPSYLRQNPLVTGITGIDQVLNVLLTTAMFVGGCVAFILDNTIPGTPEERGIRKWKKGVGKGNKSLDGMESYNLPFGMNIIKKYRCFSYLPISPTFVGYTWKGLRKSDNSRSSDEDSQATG
UniProt Q9H1U9: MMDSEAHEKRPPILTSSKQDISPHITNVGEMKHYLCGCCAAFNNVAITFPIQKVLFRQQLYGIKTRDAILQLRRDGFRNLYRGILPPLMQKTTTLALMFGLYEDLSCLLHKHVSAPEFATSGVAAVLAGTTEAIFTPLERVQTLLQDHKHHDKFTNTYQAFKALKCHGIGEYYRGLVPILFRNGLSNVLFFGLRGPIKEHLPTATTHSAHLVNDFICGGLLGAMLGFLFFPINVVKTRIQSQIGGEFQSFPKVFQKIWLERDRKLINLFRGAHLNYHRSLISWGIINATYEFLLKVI
UniProt Q7Z2H8: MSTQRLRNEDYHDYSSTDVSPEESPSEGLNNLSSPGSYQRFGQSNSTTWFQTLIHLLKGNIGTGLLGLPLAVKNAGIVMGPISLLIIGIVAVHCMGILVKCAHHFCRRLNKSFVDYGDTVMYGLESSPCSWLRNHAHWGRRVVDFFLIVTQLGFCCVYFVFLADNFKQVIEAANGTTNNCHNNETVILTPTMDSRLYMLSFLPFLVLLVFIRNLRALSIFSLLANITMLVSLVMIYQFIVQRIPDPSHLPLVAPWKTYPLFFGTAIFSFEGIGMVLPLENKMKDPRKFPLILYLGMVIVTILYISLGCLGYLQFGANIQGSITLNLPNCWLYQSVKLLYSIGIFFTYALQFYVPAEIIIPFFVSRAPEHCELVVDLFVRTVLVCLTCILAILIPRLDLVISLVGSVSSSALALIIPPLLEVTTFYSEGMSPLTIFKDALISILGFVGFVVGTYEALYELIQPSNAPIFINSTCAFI
UniProt Q96NT5: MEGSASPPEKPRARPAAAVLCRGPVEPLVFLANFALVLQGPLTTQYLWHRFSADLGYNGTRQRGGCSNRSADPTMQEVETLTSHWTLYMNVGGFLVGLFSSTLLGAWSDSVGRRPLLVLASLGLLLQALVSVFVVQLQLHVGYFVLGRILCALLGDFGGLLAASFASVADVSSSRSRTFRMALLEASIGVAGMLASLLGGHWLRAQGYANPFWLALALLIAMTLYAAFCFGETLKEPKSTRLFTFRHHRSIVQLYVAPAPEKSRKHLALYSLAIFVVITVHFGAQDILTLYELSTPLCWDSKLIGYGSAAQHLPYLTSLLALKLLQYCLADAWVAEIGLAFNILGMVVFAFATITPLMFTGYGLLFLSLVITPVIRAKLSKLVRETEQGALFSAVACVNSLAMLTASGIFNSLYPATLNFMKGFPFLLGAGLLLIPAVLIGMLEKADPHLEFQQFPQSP

filanesib = compound: CON(C)C(=O)N1N=C(c2cc(F)ccc2F)S[C@@]1(CCCN)c1ccccc1 [filanesib]
How it was run: as §1

zotarolimus = compound: CO[C@H]1C[C@@H]2CC[C@@H](C)[C@@](O)(O2)C(=O)C(=O)N2CCCC[C@H]2C(=O)O[C@H]([C@H](C)C[C@@H]2CC[C@H](n3cnnn3)[C@H](OC)C2)CC(=O)[C@H](C)/C=C(\C)[C@@H](O)[C@@H](OC)C(=O)[C@H](C)C[C@H](C)/C=C/C=C/C=C/1C [zotarolimus]
How it was run: as §1

idasanutlin = compound: COc1cc(C(=O)O)ccc1NC(=O)[C@@H]1N[C@@H](CC(C)(C)C)[C@](C#N)(c2ccc(Cl)cc2F)[C@H]1c1cccc(Cl)c1F [idasanutlin]
How it was run: as §1

alisertib = compound: COc1cc(Nc2ncc3c(n2)-c2ccc(Cl)cc2C(c2c(F)cccc2OC)=NC3)ccc1C(=O)O [alisertib]
How it was run: as §1

[2] = compound: COc1cc2nc(-c3cc(F)ccc3O)nc(N[C@@H]3CNC[C@H]3C(C)(C)O)c2cc1OC
How it was run: as §1

gefitinib = compound: COc1cc2ncnc(Nc3ccc(F)c(Cl)c3)c2cc1OCCCN1CCOCC1 [gefitinib]
How it was run: as §1

[3] = compound: COc1cccc2cc(-c3nc([C@H]4CC[C@H](C(=O)O)CC4)n4ncnc(N)c34)[nH]c12
How it was run: as §1

lapatinib = compound: CS(=O)(=O)CCNCc1ccc(-c2ccc3ncnc(Nc4ccc(OCc5cccc(F)c5)c(Cl)c4)c3c2)o1 [lapatinib]
How it was run: as §1

pictilisib = compound: CS(=O)(=O)N1CCN(Cc2cc3nc(-c4cccc5[nH]ncc45)nc(N4CCOCC4)c3s2)CC1 [pictilisib]
How it was run: as §1

Measured: log2 fold change

SLC38A5 (UniProt Q8WUX1)
inactive: [1] -0.065 | filanesib -0.004 | zotarolimus -0.029 | idasanutlin 0.04 | alisertib -0.01 | [2] -0.03 | gefitinib -0.022 | [3] 0.122 | lapatinib -0.034 | pictilisib 0.078

SLC15A4 (UniProt Q8N697)
inactive: [1] 0.072 | zotarolimus 0.085 | idasanutlin -0.068 | alisertib 0.028 | [2] 0.052 | gefitinib -0.002 | [3] -0.056 | lapatinib -0.006

SLC17A5 (UniProt Q9NRA2)
inactive: [1] -0.037 | filanesib -0.165 | idasanutlin 0.052 | [2] -0.045 | lapatinib 0.114

SLC25A37 (UniProt Q9NYZ2)
inactive: [1] -0.093 | filanesib 0.009 | zotarolimus -0.012 | idasanutlin -0.021 | alisertib -0.127 | [2] -0.095 | gefitinib 0.048 | [3] 0.028 | lapatinib 0.039 | pictilisib -0.061

SLC26A6 (UniProt Q9BXS9)
inactive: [1] -0.011 | filanesib 0.081 | zotarolimus -0.029 | idasanutlin 0.089 | alisertib -0.057 | [2] 0.015 | gefitinib 0.098 | [3] 0.128 | lapatinib 0.015 | pictilisib 0.209

SLC35B2 (UniProt Q8TB61)
inactive: [1] 0.004 | filanesib -0.021 | zotarolimus -0.009 | idasanutlin -0.034 | alisertib -0.065 | [2] -0.004 | gefitinib 0.021 | [3] 0.053 | lapatinib 0.06 | pictilisib 0.001

SLC25A13 isoform 2 (UniProt Q9UJS0)
inactive: [1] -0.038 | filanesib -0.049 | zotarolimus -0.013 | idasanutlin -0.029 | alisertib -0.036 | [2] 0.013 | gefitinib 0.001 | [3] 0.057 | lapatinib -0.016 | pictilisib -0.027

SLC4A1AP (UniProt Q9BWU0)
inactive: [1] 0.014 | filanesib 0.081 | zotarolimus -0.011 | idasanutlin 0.006 | alisertib -0.028 | [2] 0.111 | gefitinib 0.022 | [3] -0.053 | lapatinib -0.03 | pictilisib -0.011

SLC38A9 (UniProt Q8NBW4)
inactive: [1] 0.033 | filanesib 0.064 | zotarolimus -0.012 | idasanutlin -0.004 | alisertib 0 | [2] 0.053 | gefitinib -0.012 | [3] 0.121 | lapatinib -0.065 | pictilisib -0.027

SLC41A3 isoform 9 (UniProt Q96GZ6)
inactive: [1] -0.011 | filanesib -0.044 | idasanutlin 0.112 | alisertib 0.069 | gefitinib -0.037 | [3] 0.246 | pictilisib 0.097

SLC35E2B (UniProt P0CK96)
inactive: [1] 0.101 | filanesib 0.021 | zotarolimus -0.151 | alisertib -0.071 | [2] 0.005 | [3] -0.027 | lapatinib 0.08

SLC37A4 isoform 2 (UniProt O43826)
inactive: [1] -0.081 | filanesib -0.028 | zotarolimus -0.012 | idasanutlin -0.028 | alisertib -0.04 | [2] -0.047 | gefitinib 0.031 | [3] 0.064 | lapatinib 0.068 | pictilisib -0.033

SLC25A5 (UniProt P05141)
inactive: [1] -0.024 | filanesib -0.011 | zotarolimus 0.198 | idasanutlin 0.086 | alisertib 0.006 | [2] -0.037 | gefitinib -0.023 | [3] -0.017 | lapatinib -0.059 | pictilisib -0.043

SLC35A3 isoform 2 (UniProt Q9Y2D2)
inactive: [1] -0.028 | filanesib 0.029 | idasanutlin -0.036 | alisertib -0.055 | [2] 0.027 | gefitinib 0.023 | [3] 0.02 | lapatinib -0.166 | pictilisib 0.173

Reprinted from the entries so far (nine entries):
SLC35B2 (UniProt Q8TB61)
inactive: [1] 0.004 | filanesib -0.021 | zotarolimus -0.009 | idasanutlin -0.034 | alisertib -0.065 | [2] -0.004 | gefitinib 0.021 | [3] 0.053 | lapatinib 0.06 | pictilisib 0.001

SLC25A13 isoform 2 (UniProt Q9UJS0)
inactive: [1] -0.038 | filanesib -0.049 | zotarolimus -0.013 | idasanutlin -0.029 | alisertib -0.036 | [2] 0.013 | gefitinib 0.001 | [3] 0.057 | lapatinib -0.016 | pictilisib -0.027

SLC4A1AP (UniProt Q9BWU0)
inactive: [1] 0.014 | filanesib 0.081 | zotarolimus -0.011 | idasanutlin 0.006 | alisertib -0.028 | [2] 0.111 | gefitinib 0.022 | [3] -0.053 | lapatinib -0.03 | pictilisib -0.011

SLC38A9 (UniProt Q8NBW4)
inactive: [1] 0.033 | filanesib 0.064 | zotarolimus -0.012 | idasanutlin -0.004 | alisertib 0 | [2] 0.053 | gefitinib -0.012 | [3] 0.121 | lapatinib -0.065 | pictilisib -0.027

SLC41A3 isoform 9 (UniProt Q96GZ6)
inactive: [1] -0.011 | filanesib -0.044 | idasanutlin 0.112 | alisertib 0.069 | gefitinib -0.037 | [3] 0.246 | pictilisib 0.097

SLC35E2B (UniProt P0CK96)
inactive: [1] 0.101 | filanesib 0.021 | zotarolimus -0.151 | alisertib -0.071 | [2] 0.005 | [3] -0.027 | lapatinib 0.08

SLC37A4 isoform 2 (UniProt O43826)
inactive: [1] -0.081 | filanesib -0.028 | zotarolimus -0.012 | idasanutlin -0.028 | alisertib -0.04 | [2] -0.047 | gefitinib 0.031 | [3] 0.064 | lapatinib 0.068 | pictilisib -0.033

SLC25A5 (UniProt P05141)
inactive: [1] -0.024 | filanesib -0.011 | zotarolimus 0.198 | idasanutlin 0.086 | alisertib 0.006 | [2] -0.037 | gefitinib -0.023 | [3] -0.017 | lapatinib -0.059 | pictilisib -0.043

SLC35A3 isoform 2 (UniProt Q9Y2D2)
inactive: [1] -0.028 | filanesib 0.029 | idasanutlin -0.036 | alisertib -0.055 | [2] 0.027 | gefitinib 0.023 | [3] 0.02 | lapatinib -0.166 | pictilisib 0.173

Next part

SLC3A2 isoform 3 (UniProt P08195)
inactive: [1] 0.018 | filanesib 0.019 | zotarolimus -0.015 | idasanutlin 0.005 | alisertib -0.084 | [2] 0.017 | gefitinib 0.024 | [3] 0.027 | lapatinib 0.011 | pictilisib 0.004

SLC30A6 isoform 2 (UniProt Q6NXT4)
inactive: [1] -0.028 | filanesib -0.076 | zotarolimus -0.002 | idasanutlin 0.017 | alisertib 0.014 | [2] -0.017 | gefitinib 0.006 | [3] 0.049 | lapatinib -0.042 | pictilisib -0.091

SLC25A40 (UniProt Q8TBP6)
inactive: [1] -0.013 | filanesib -0.07 | zotarolimus 0.002 | idasanutlin -0.028 | alisertib -0.086 | [2] -0.145 | gefitinib -0.026 | [3] 0.066 | lapatinib 0.047 | pictilisib -0.045

SLC22A18 (UniProt Q96BI1)
inactive: [1] -0.036 | filanesib -0.114 | zotarolimus -0.05 | alisertib 0.022 | [2] -0.024 | gefitinib 0.047 | [3] 0.074 | lapatinib 0.014 | pictilisib 0.097

SLC25A22 (UniProt Q9H936)
inactive: [1] -0.044 | filanesib -0.034 | zotarolimus -0.03 | idasanutlin -0.024 | alisertib -0.016 | [2] 0.036 | gefitinib 0.006 | [3] 0.067 | lapatinib -0.023 | pictilisib 0.011

SLC23A2 (UniProt Q9UGH3)
inactive: [1] -0.112 | filanesib 0.105 | gefitinib -0.13

SLC25A30 (UniProt Q5SVS4)
inactive: [1] -0.143 | filanesib 0.023 | zotarolimus -0.036 | idasanutlin 0.093 | [2] 0.137 | gefitinib 0.029 | lapatinib -0.114 | pictilisib -0.047

SLC35F5 (UniProt Q8WV83)
inactive: [1] -0.445 | filanesib 0.057 | [2] 0.154 | gefitinib -0.093 | lapatinib -0.292 | pictilisib 0.104

SLC25A51 (UniProt Q9H1U9)
inactive: [1] -0.06 | filanesib -0.06 | zotarolimus 0.003 | idasanutlin -0.014 | alisertib -0.027 | [2] 0.012 | gefitinib -0.005 | [3] 0.077 | lapatinib 0 | pictilisib 0.013

SLC25A38 (UniProt Q96DW6)
active: [3] 0.447
inactive: [1] -0.013 | filanesib -0.01 | zotarolimus -0.029 | idasanutlin -0.069 | alisertib -0.049 | [2] 0.039 | gefitinib 0.013 | lapatinib -0.02 | pictilisib 0.04

SLC25A10 isoform 2 (UniProt Q9UBX3)
inactive: [1] 0.055 | filanesib 0.009 | zotarolimus -0.033 | idasanutlin -0.002 | alisertib -0.055 | [2] -0.022 | gefitinib -0.015 | [3] 0.015 | lapatinib 0.049 | pictilisib -0.057

SLC1A4 (UniProt P43007)
inactive: [1] -0.102 | filanesib -0.006 | zotarolimus -0.066 | idasanutlin 0.017 | alisertib -0.135 | [2] 0.06 | gefitinib 0.033 | [3] 0.098 | lapatinib 0.016 | pictilisib 0.128

SLC48A1 (UniProt Q6P1K1)
inactive: [1] 0.093 | filanesib -0.074 | gefitinib 0.1

SLC66A3 (UniProt Q8N755)
inactive: filanesib 0.025 | alisertib -0.024 | gefitinib -0.077 | [3] 0.066

SLC36A1 (UniProt Q7Z2H8)
inactive: [1] 0.094 | alisertib -0.191 | [3] -0.087

SLC22A5 isoform 3 (UniProt O76082)
inactive: [1] 0.105 | [2] 0.017 | gefitinib 0.073 | lapatinib 0.044 | pictilisib 0.002

SLC35E1 (UniProt Q96K37)
inactive: [1] -0.49 | zotarolimus -0.011 | idasanutlin 0.027 | alisertib 0.01 | [2] -0.034 | gefitinib -0.008 | [3] 0.119 | lapatinib 0.059 | pictilisib -0.096

SLC46A1 (UniProt Q96NT5)
inactive: zotarolimus -0.095 | idasanutlin -0.107 | pictilisib 0.061

SLC66A1 (UniProt Q6ZP29)
inactive: alisertib 0.139 | gefitinib 0.124 | [3] 0.096

— the supplement of paper PMC10849652
